Values quoted from earlier work as cited in patent publication US20040054010A1, “Endosulfan formulation and methods of use thereof” (priority 2000, published 2004).

Settings: 14 days after treatment; Chopra and Mahfouz, 1977; Mukherjee and Gopal, 1994; cited from earlier work

Structure (SMILES)	endosulfan sulfate content of treated tobacco plants [ppm]
O=S1OC[C@@H]2[C@H](CO1)[C@@]1(Cl)C(Cl)=C(Cl)[C@]2(Cl)C1(Cl)Cl (stereo partly drawn) [alpha-endosulfan]	0.5
O=S1OC[C@@H]2[C@H](CO1)[C@]1(Cl)C(Cl)=C(Cl)[C@]2(Cl)C1(Cl)Cl (stereo partly drawn) [beta-endosulfan]	0.1
